These are yes or no findings as the source states them, for the method shown. Binding seen in cells or lysates may run through a third protein. A yes stands for co-enrichment or nearness to the bait. Other partners may have been found.
B1: NtARL8a (Nicotiana tabacum ARL8a), endogenous (protein, UniProt H1AD87 1-184)
chain: MGLWEAFLNWLRSLFFKQEMELSLIGLQNAGKTSLVNVIATGGYSEDMIPTVGFNMRKVTKGNVTIKLWDLGGQPRFRSMWERYCRAVSAIVYVVDAADHDNLSISKSELHDLLNKPSLSGIPLLVLGNKIDKPGALSKQALTDEMGLKSITDREVCCYMISCKNSTNIDSVIDWLVKHSKSKS
B2: NtARL8b (Nicotiana tabacum ARL8b), endogenous (protein, UniProt H1AD88 1-184)
chain: MGIWEAFLNWLRSLFFKQEMELSLIGLQNAGKTSLVNVIATGGYSEDMIPTVGFNMRKVTKGNVTIKLWDLGGQPRFRSMWERYCRAVSAIVYVVDAADPDNLSISSSELHDLLSKPSLSGIPLLVLGNKIDKPGAQSKQALTDQMGLKSITDREVCCYMISCKNSTNIDSVIDWLVKHSKSKS
B3: NtARL8c (Nicotiana tabacum ARL8c), endogenous (protein, UniProt H1AD89 1-184)
chain: MGLWEALLNWLRSLFFQQEMELSLIGLQNAGKTSLVNVIATGGYSEDMIPTVGFNMRKVTKGNVTIKLWDLGGQPRFRSMWERYCRAVSAIVYVVDAADHDNVSISRSEIHDLLSKPSLNGIPLLVLGNKIDKPEALSKQALTDQMDLKSVTDREVCCYMISCKNSTNIDSVLDWLVKHSKSKS

What follows are binders tested against FLAG-StrepII-tagged ToMV 180K replication protein (180K-FS) (Tomato mosaic virus) (assay: affinity purification with mass spectrometry; 180K-FS purified with anti-FLAG antibody from LPC-solubilized membranes of ToMV-180FS-GFP-infected, evacuolated BY-2 protoplasts; SDS-PAGE, silver stain, band cut out, trypsin, LC-MS/MS, MASCOT).
In the case of B1, the binding is reported as “binds”. For B2, the binding was “binds”. For B3, the binding was “binds”.

From article PMC3234234, “A Host Small GTP-binding Protein ARL8 Plays Crucial Roles in Tobamovirus RNA Replication” (PLoS Pathogens, 2011)
